The text below walks through data of publication PMC11789580.

These are yes or no findings as the source states them, for the method shown. In cells and extracts the contact can be indirect. Some entries that bind do so weakly or less than the wild type. Where a sequence is shown, tags or fusion partners need not be part of it.

The target of the test is T1, MORF2-cLUC (in Arabidopsis protoplasts) (Arabidopsis) (UniProt O22793).
T1 sequence: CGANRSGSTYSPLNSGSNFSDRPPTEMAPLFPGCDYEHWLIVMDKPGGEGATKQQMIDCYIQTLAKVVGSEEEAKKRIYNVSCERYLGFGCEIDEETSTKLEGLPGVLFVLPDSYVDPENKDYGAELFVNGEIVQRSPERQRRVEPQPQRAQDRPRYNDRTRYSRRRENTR
The test can be described thus: split reporter; firefly luciferase complementation with Renilla luciferase as internal control, one pUC19 plasmid (15 µg) in protoplasts of Col-0 and of the sca3-2 mutant, 16-20 h dark at 22 °C; ratio firefly/Renilla.

B1: MORF9-nLUC (in Arabidopsis protoplasts) (protein, UniProt Q9LPZ1 59-232)
chain: AATVDSDYSSKRSNSNEQRETIMLPGCDYNHWLIVMEFPKDPAPSRDQMIDTYLNTLATVLGSMEEAKKNMYAFSTTTYTGFQCTIDEETSEKFKGLPGVLWVLPDSYIDVKNKDYGGDKYINGEIIPCTYPTYQPKQRNNTKYQSKRYERKRDGPPPPEQRKPRQEPAASDSS
As to B1, the binding result is “binds”.
